Earlier results, collected in patent publication US20160206673A1, “Composition and Method for Improving Sexual Performance” (priority 2015, published 2016).
At least one structure is not confirmed: it was looked up by name or label, or the drawing left a doubt.

System: men with erectile dysfunction
Details: oral medications

SMILES: CN1CC(=O)N2[C@H](c3ccc4c(c3)OCO4)c3[nH]c4ccccc4c3C[C@@H]2C1=O [tadalafil]
- duration of erection helping effects: about 36 hours

SMILES: CCCc1nc(C)c2c(=O)[nH]c(-c3cc(S(=O)(=O)N4CCN(CC)CC4)ccc3OCC)nn12 [vardenafil]
- duration of erection helping effects: up to eight
